# Laboratory results as given in the supplement of paper PMC12009310.
# Counter-ions that a name gives are not always drawn. ± gives the standard deviation of the averaged measurements. The list shows a part of the results. Baselines shift from plate to plate; read single values as rough.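 The cells are a mouse kidney inner medullary collecting duct line, silenced either for the ciliary gene Rpgrip1l or with a non-targeting control siRNA.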
# System: mIMCD3
# Assay: robust z score of cilia incidence (% cells with single cilium) vs plate controls; higher = more ciliated cells (rescue of cilia loss)
# Details: 10 µM; 48 h; siRNA: siRpgrip1l
row,Compound,robust z score of cilia incidence
1,COc1ccc(C2CC(c3c(O)cc(C)oc3=O)=NCCS2)c(OC)c1 (stereo not drawn),-17.8 ± 3.5
2,CC1(C)C[C@@H]1C(=O)N/C(=C\CCCCSC[C@H](N)C(=O)O)C(=O)O [Cilastatin sodium],-7.59 ± 0.69
3,O=C(O)CCc1ccc(NCc2cccc(Oc3ccccc3)c2)cc1,-20.9 ± 4
4,COc1ccccc1N1CCN(CCN2C(=O)CC3(CCCC3)CC2=O)CC1 [BMY 7378 dihydrochloride],-11.6 ± 5.1
5,CS(=O)(=O)CCNCc1nc(-c2ccc3ncnc(Nc4ccc(OCc5cccc(F)c5)c(Cl)c4)c3c2)cs1,-47.4 ± 1.5
6,C[C@@]1(O)[C@H](O)[C@@H](CO)O[C@H]1n1cnc2c(NC3CCCC3)nc(Cl)nc21,-9.45 ± 5.7
7,CN/C(=N\c1ccc(C2=NNC(=O)CC2C)cc1)NC#N (stereo not drawn) [Siguazodan],-14.2 ± 1.8
8,COc1ccc(CCN(C)CCCOc2ccc(S(=O)(=O)c3c(C(C)C)c4ccccc4n3C)cc2)cc1OC,-28.2 ± 20
9,C[N+](C)(C)CC[N+]1(C)Cc2c(Cl)c(Cl)c(Cl)c(Cl)c2C1 [Chlorisondamine diiodide],-8.28 ± 5.3
10,CCCCc1nc2ccn(Cc3cccs3)c(=O)c2n1Cc1ccc(-c2ccccc2-c2nn[nH]n2)cc1,-35.8 ± 32
11,CC(C)[C@H](CO)Nc1nc(Nc2cc(N)cc(Cl)c2)c2ncn(C(C)C)c2n1 [Aminopurvalanol A],-38.1 ± 10
12,Cn1cc(C2=C(c3ccc(Cl)cc3Cl)C(=O)NC2=O)c2ccccc21,-148 ± 73
13,COc1cc2nc(N3CCN(C(=O)C4CCCO4)CC3)nc(N)c2cc1OC (stereo not drawn) [Terazosin hydrochloride],-148 ± 100
14,"CCCC(=O)Nc1ncnc2c1ncn2[C@@H]1O[C@@H]2COP(=O)(O)O[C@H]2[C@H]1OC(=O)CCC [Dibutyryl-cAMP, sodium salt]",-13.9 ± 0.92
15,CCCCCCCCCCC[C@@H](C[C@@H]1OC(=O)[C@H]1CCCCCC)OC(=O)[C@H](CC(C)C)NC=O [Orlistat],-22 ± 17
16,Cc1nn(C)c2nc(NNC(=O)Nc3cc(Cl)nc(Cl)c3)cc(C(C)C)c12,-12.3 ± 4.1
17,Cc1cc(F)c(Nc2ncnc3cc(OCc4ccccc4)ccc23)cc1O,-56.3 ± 9.5
18,Cc1cc(C(=O)O)sc1C(N)C(=O)O (stereo not drawn),-7.1 ± 2.4
19,CN1CCC(=C2c3ccccc3CC(=O)c3sccc32)CC1 [Ketotifen fumarate],-12.4 ± 3.8

row,Compound,robust z score of cilia incidence
1,C[C@@H](N)[C@H]1CC[C@H](C(=O)Nc2ccncc2)CC1,-6.99 ± 6.8
2,CCCCC#Cc1nc(NC)c2ncn([C@@H]3O[C@H](CO)[C@@H](O)[C@H]3O)c2n1,-111 ± 86
3,CC(C)C1C2CCC(C2)C1N (stereo not drawn),-12.8 ± 2.9
4,Cc1ccc(Sc2cncc3sc(C(N)=O)cc23)cc1,-21.4 ± 4.8
5,CCN(CC)CCCCNc1ncc2cc(-c3c(Cl)cccc3Cl)c(NC(=O)NC(C)(C)C)nc2n1,-41.7 ± 1.2
6,O=S(=O)(NCCNC/C=C/c1ccc(Br)cc1)c1cccc2cnccc12 [H 89 dihydrochloride],-13.6 ± 5.8
7,CC1(C)O[C@@H]2[C@@H](CO[C@@]3(COS(N)(=O)=O)OC(C)(C)O[C@@H]23)O1 [Topiramate],-5.43 ± 2.7
8,OCc1cc(C(O)CNCCCCCCOCCCCc2ccccc2)ccc1O (stereo not drawn) [Salmeterol],-282 ± 170
9,COc1ccc(CC(=O)NC(/N=C(\NC#N)Nc2cccc3ncccc23)C(C)(C)C)cc1OC (stereo not drawn),-8.49 ± 2.5
10,COc1cc(C(=O)OCCCN2CCCN(CCCOC(=O)c3cc(OC)c(OC)c(OC)c3)CC2)cc(OC)c1OC [Dilazep dihydrochloride],-32.3 ± 18
11,Cc1c(C(=O)NC2CCCCC2)sc2nc3ccc(N)cc3n12,-20.9 ± 12
12,"OCCNCCCOc1cccc(Cl)c1Cl [2,3-DCPE hydrochloride]",-16.4 ± 11
13,c1ccc(-c2n[nH]c3c2oc2ccccc23)cc1,-19.7 ± 25
14,NC(=O)OCC(COC(N)=O)c1ccccc1 [Felbamate],-6.48 ± 1.5
15,CCc1nn(CCCN2CCN(c3cccc(Cl)c3)CC2)c(=O)n1CCOc1ccccc1 [Nefazodone hydrochloride],-14.7 ± 5.2
16,CC(C)(CO)Cc1cc(C(C)(C)C)c(O)c(C(C)(C)C)c1,-209 ± 92
17,NC(N)=Nc1ccc(Cl)cc1 [4-Chlorophenylguanidine hydrochloride],-4.27 ± 5
18,"Nc1ncnc2c1nc(Br)n2[C@@H]1O[C@@H]2COP(=O)(O)O[C@H]2[C@H]1O [8-Bromo-cAMP, sodium salt]",-15.1 ± 1.2
19,CC(C)c1onc(-c2c(Cl)cccc2Cl)c1COc1ccc(/C=C/c2cccc(C(=O)O)c2)c(Cl)c1,-56.5 ± 7

# 6 compounds already listed, arranged by formula weight, falling:
row,Compound,robust z score of cilia incidence
10,COc1cc(C(=O)OCCCN2CCCN(CCCOC(=O)c3cc(OC)c(OC)c(OC)c3)CC2)cc(OC)c1OC [Dilazep dihydrochloride],-32.3 ± 18
9,COc1ccc(CC(=O)NC(/N=C(\NC#N)Nc2cccc3ncccc23)C(C)(C)C)cc1OC (stereo not drawn),-8.49 ± 2.5
13,COc1cc2nc(N3CCN(C(=O)C4CCCO4)CC3)nc(N)c2cc1OC (stereo not drawn) [Terazosin hydrochloride],-148 ± 100
4,Cc1ccc(Sc2cncc3sc(C(N)=O)cc23)cc1,-21.4 ± 4.8
14,NC(=O)OCC(COC(N)=O)c1ccccc1 [Felbamate],-6.48 ± 1.5
17,NC(N)=Nc1ccc(Cl)cc1 [4-Chlorophenylguanidine hydrochloride],-4.27 ± 5
